Measured values taken from the supplement of paper PMC10735217.
Where a name gives a salt, the structure may show the parent alone. The list shows a part of the results. Repeats in this data set agree poorly, so a single value says little.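 The human kidney-derived cells carry a stably integrated construct of eight TEAD-binding elements driving luciferase, read by luminescence in a drug-repurposing library screen. A compound counts as a hit when its signal is more than five robust Z scores above the plate mean.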

Test system: HEK293A TEAD-LUC reporter
Assay: TEAD-luciferase reporter activity (YAP activation), robust Z score vs plate; higher = stronger YAP/TEAD activation
Details: 24 h

## CN(Cc1cccc(C(F)(F)F)c1)C(=O)C1CC1
Compound concentration: 200 nM
  TEAD-luciferase reporter activity: inactive: -1.43
Compound concentration: 10 uM
  TEAD-luciferase reporter activity: active: 9.42

## O=C(Nc1ccc(C(F)(F)F)cn1)N1CC=C(c2ncc([C@H](O)CO)cc2Cl)CC1
Compound concentration: 200 nM
  TEAD-luciferase reporter activity: inactive: -0.411
Compound concentration: 2 uM
  TEAD-luciferase reporter activity: inactive: 0.704
Compound concentration: 10 uM
  TEAD-luciferase reporter activity: inactive: 0.832

## CO[C@@]1(NC(=O)Cc2cccs2)C(=O)N2C(C(=O)O)=C(COC(N)=O)CS[C@@H]21 [cefoxitin sodium]
Compound concentration: 200 nM
  TEAD-luciferase reporter activity: inactive: -0.98
Compound concentration: 2 uM
  TEAD-luciferase reporter activity: inactive: -0.408
Compound concentration: 10 uM
  TEAD-luciferase reporter activity: inactive: -1.41

## CC(C)(C)c1cc(C(O)CCC2CCNCC2)c2ccccc2n1 (centres undefined)
Compound concentration: 200 nM
  TEAD-luciferase reporter activity: inactive: 0.855
Compound concentration: 2 uM
  TEAD-luciferase reporter activity: inactive: 0.0522
Compound concentration: 10 uM
  TEAD-luciferase reporter activity: inactive: 0.18

## Nc1ccncc1N [amifampridine phosphate]
Compound concentration: 200 nM
  TEAD-luciferase reporter activity: inactive: 0.317
Compound concentration: 2 uM
  TEAD-luciferase reporter activity: inactive: -2.41
Compound concentration: 10 uM
  TEAD-luciferase reporter activity: active: 6.25

## COC(=O)[C@H]1[C@H]2C[C@@H]3c4[nH]c5ccccc5c4CCN3C[C@H]2C[C@@H](OC(=O)c2cc(OC)c(OC)c(OC)c2)[C@@H]1OC
Compound concentration: 2 uM
  TEAD-luciferase reporter activity: inactive: -1.35

## COC(=O)[C@H]1[C@H]2C[C@@H]3c4[nH]c5ccccc5c4CCN3C[C@H]2C[C@@H](OC(=O)c2cc(OC)c(OC)c(OC)c2)[C@@H]1OC [Deserpidine]
Compound concentration: 200 nM
  TEAD-luciferase reporter activity: inactive: -0.213
Compound concentration: 10 uM
  TEAD-luciferase reporter activity: inactive: -0.0751

## CCCCOC(=O)[C@@H](CCC(N)=O)NC(=O)[C@H](C)NC(=O)[C@@H](C)O[C@H]1[C@H](O)[C@@H](CO)OC(O)[C@@H]1NC(C)=O (some centres undefined) [Murabutide]
Compound concentration: 200 nM
  TEAD-luciferase reporter activity: inactive: -1.54
Compound concentration: 2 uM
  TEAD-luciferase reporter activity: inactive: 0.582
Compound concentration: 10 uM
  TEAD-luciferase reporter activity: inactive: 0.0509

## O=C(O)C=C1NN(Cc2nc3cc(C(F)(F)F)ccc3s2)C(=O)c2ccccc21 [Zopolrestat]
Compound concentration: 200 nM
  TEAD-luciferase reporter activity: inactive: 1.5
Compound concentration: 2 uM
  TEAD-luciferase reporter activity: inactive: -0.273
Compound concentration: 10 uM
  TEAD-luciferase reporter activity: inactive: 2.8

## Cn1ncc(C(=O)NCC(C)(C)O)c1C(=O)Nc1ccn2cc(-c3ccccc3)nc2n1
Compound concentration: 200 nM
  TEAD-luciferase reporter activity: inactive: -1.97
Compound concentration: 2 uM
  TEAD-luciferase reporter activity: inactive: -1.18
Compound concentration: 10 uM
  TEAD-luciferase reporter activity: inactive: 0.574

## CS(=O)(=O)n1cc2c(n1)CN([C@H]1CO[C@H](c3cc(F)ccc3F)[C@@H](N)C1)C2 [omarigliptin]
Compound concentration: 200 nM
  TEAD-luciferase reporter activity: inactive: -2.16
Compound concentration: 2 uM
  TEAD-luciferase reporter activity: inactive: -0.711
Compound concentration: 10 uM
  TEAD-luciferase reporter activity: inactive: 2.09

## CCC1(c2c[nH]cn2)Cc2ccccc2C1 [Atipamezole]
Compound concentration: 200 nM
  TEAD-luciferase reporter activity: inactive: -0.515
Compound concentration: 2 uM
  TEAD-luciferase reporter activity: inactive: -0.879
Compound concentration: 10 uM
  TEAD-luciferase reporter activity: inactive: 2.01

## COc1c(C(O)CCc2ccc(O)cc2)c(OCCN2CCCCC2)c(OC)c2occc12 (centres undefined)
Compound concentration: 200 nM
  TEAD-luciferase reporter activity: inactive: -0.518
Compound concentration: 2 uM
  TEAD-luciferase reporter activity: inactive: -0.737
Compound concentration: 10 uM
  TEAD-luciferase reporter activity: inactive: -0.611

## CC(=O)N[C@@H]([C@@H](O)[C@H](O)[C@H](O)CO)[C@@H](O)CC(=O)C(=O)O [sodium aceneuramate]
Compound concentration: 200 nM
  TEAD-luciferase reporter activity: inactive: 0.0947
Compound concentration: 2 uM
  TEAD-luciferase reporter activity: inactive: 1.16
Compound concentration: 10 uM
  TEAD-luciferase reporter activity: inactive: 2.66

## CC12CC3CC(C)(C1)CC(N)(C3)C2 [Memantine hydrochloride]
Compound concentration: 2 uM
  TEAD-luciferase reporter activity: inactive: -1.08

## CC12CC3CC(C)(C1)CC(N)(C3)C2
Compound concentration: 200 nM
  TEAD-luciferase reporter activity: inactive: 0.419
Compound concentration: 10 uM
  TEAD-luciferase reporter activity: inactive: -0.116

## CC12CC[C@@H]3c4ccc(O[C@@H]5O[C@H](CO)[C@@H](O)[C@H](O)[C@H]5O)cc4CC[C@H]3[C@@H]1CC[C@@H]2O (some centres undefined) [Estradiol glucoside]
Compound concentration: 200 nM
  TEAD-luciferase reporter activity: inactive: -2.36
Compound concentration: 2 uM
  TEAD-luciferase reporter activity: inactive: -1.06
Compound concentration: 10 uM
  TEAD-luciferase reporter activity: inactive: -1.22

## C#CCC(N)C(=O)O (centres undefined)
Compound concentration: 200 nM
  TEAD-luciferase reporter activity: inactive: -0.218
Compound concentration: 2 uM
  TEAD-luciferase reporter activity: inactive: -1.35
Compound concentration: 10 uM
  TEAD-luciferase reporter activity: inactive: -0.615

## CC(=O)[C@@]1(O)[C@H](C)CC2C3CC=C4CC(OP(=O)(O)O)CC[C@]4(C)C3CC[C@@]21C (some centres undefined)
Compound concentration: 200 nM
  TEAD-luciferase reporter activity: inactive: -0.456
Compound concentration: 2 uM
  TEAD-luciferase reporter activity: inactive: -0.537
Compound concentration: 10 uM
  TEAD-luciferase reporter activity: inactive: 0.192

## Nc1nc2ccc(OC(F)(F)F)cc2s1 [Riluzole]
Compound concentration: 200 nM
  TEAD-luciferase reporter activity: inactive: -0.697
Compound concentration: 10 uM
  TEAD-luciferase reporter activity: inactive: 0.177

## Nc1nc2ccc(OC(F)(F)F)cc2s1 [riluzole]
Compound concentration: 2 uM
  TEAD-luciferase reporter activity: inactive: 1.99

## COc1ncc(-c2nc3c(n2C(C)C)[C@@H](c2ccc(Cl)cc2)N(c2cc(Cl)cn(C)c2=O)C3=O)c(OC)n1
Compound concentration: 200 nM
  TEAD-luciferase reporter activity: inactive: -1.34
Compound concentration: 2 uM
  TEAD-luciferase reporter activity: inactive: -0.934
Compound concentration: 10 uM
  TEAD-luciferase reporter activity: active: 5.55

## N=C(NCC(F)(F)F)Nc1ccn(CCCCC(N)=O)n1
Compound concentration: 200 nM
  TEAD-luciferase reporter activity: inactive: 2.1
Compound concentration: 2 uM
  TEAD-luciferase reporter activity: inactive: -1
Compound concentration: 10 uM
  TEAD-luciferase reporter activity: inactive: 2.09

## CC1CCC2c3c(c4ccccc4n3Cc3ccccc3)CCN2C1 (centres undefined)
Compound concentration: 200 nM
  TEAD-luciferase reporter activity: inactive: 0.606
Compound concentration: 2 uM
  TEAD-luciferase reporter activity: inactive: 4.14
Compound concentration: 10 uM
  TEAD-luciferase reporter activity: active: 18.4

## COc1ccccc1N1CCN(CCC(O)c2csc3ccccc23)CC1 (centres undefined)
Compound concentration: 200 nM
  TEAD-luciferase reporter activity: inactive: -0.122
Compound concentration: 2 uM
  TEAD-luciferase reporter activity: inactive: -0.639
Compound concentration: 10 uM
  TEAD-luciferase reporter activity: inactive: -0.183

## CC(=O)c1cc2cccc(OCC(O)CNC(C)C)c2o1 (centres undefined)
Compound concentration: 200 nM
  TEAD-luciferase reporter activity: inactive: -1.23
Compound concentration: 2 uM
  TEAD-luciferase reporter activity: inactive: -1.09
Compound concentration: 10 uM
  TEAD-luciferase reporter activity: inactive: 0.759

## C#Cc1cnc(O)nc1O [eniluracil]
Compound concentration: 200 nM
  TEAD-luciferase reporter activity: inactive: -0.753
Compound concentration: 2 uM
  TEAD-luciferase reporter activity: inactive: -0.564
Compound concentration: 10 uM
  TEAD-luciferase reporter activity: inactive: 1.53

## Cc1noc(NS(=O)(=O)c2cccc3c(N(C)C)cccc23)c1C
Compound concentration: 200 nM
  TEAD-luciferase reporter activity: inactive: -0.721
Compound concentration: 2 uM
  TEAD-luciferase reporter activity: inactive: -1.25
Compound concentration: 10 uM
  TEAD-luciferase reporter activity: inactive: 0.123
